Experimental findings from PubChem BioAssay AID1347423 (Functional Genomics Laboratory (NCATS/FGL), 2020) are described below.

Among all 52,000 sequences or so, about 210 (0.4%) were called active.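 The calls were made as follows: active = gene whose silencing raises cell survival under the drug, median off-target-corrected z-score across its silencing RNAs 2 or more; inactive = the rest.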 This is one part of the list.

The experiment in a line: Resistance to Poly (ADP-Ribose) Polymerase inhibitor: Gene Identification via Genome-wide siRNA Screen. Particulars: mouse BRCA2 R2336H ES cells, olaparib, CellTiter-Glo viability; hits give high values. In outline:
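Genome-wide siRNA screen (3 siRNAs/gene, 20 nM) in mouse ES cells carrying hypomorphic BRCA2 R2336H; olaparib 500 nM added 48 h post-transfection, CellTiter-Glo viability 72 h later. Normalized to plate-median negative control; MAD z-scores, gene median, seed-adjusted.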
In general terms: Cellular ATP, detected with luciferase, serves as a proxy for viable cell number.
Consider GGAGAGUGACAUCAUCGUATT against AW822216, for which the z-score is inactive: -0.104. For CCAAAACCUCUACCGUUACTT against Cyp3a25, the z-score is inactive: -0.55.

Turning to GGAGGUCGCUUCCUAUUACTT against Tat, the z-score is active: 1.26. For the sequence GGAACAAAGACAUUGCUUUTT against Sf3a3, the z-score was inactive: -2.09. Regarding GCUGCAACAUGACAUGUCGTT against AU022252, the z-score was inactive: 2.21.

For the sequence GGCCAUCACACACAGAAACTT against Pla2g2f, the z-score is inactive: 0.622. As for UAUACCUUAGUGCUGAGGGTT against Olfr736, the figure is inactive: -0.718. As for GGAGCUGAUCCAGAACAGATT against Ncor2, the figure is inactive: 2.68. As for “GCCAUAGGAAAUUGCUAUUTT against C130086A10”, the figure is inactive: 0.34.

Consider GCCUAGGUUUGAUGAACUATT against Nlgn3, for which the z-score was inactive: -0.511. The result for GCUUUUGUAUACCUACUGUTT against AL022818 reads inactive: -0.0986. Take CCAGAGAUGACCGUCUUAATT against Hddc2: the z-score was inactive: -1.62. For the sequence GGCAAACAAUAAAGUGUGGTT against Bpgm, the z-score was inactive: 0.0152. As for GGAGGCAGCUCCUAUGAUGTT against Rbm28, the figure is inactive: -1.08; as for CGGCACACUAAGAAACGGATT against BC049697, inactive: -0.616; as for GCACUGUUCGUUUUUGUUUTT against Astn1, inactive: -0.273.

With CGACCAGAAGUGGUAUGUCTT against Adra2a, the z-score was inactive: 1.03. Regarding GAGAUCAACUUGGUGACGGTT against Cacng7, the z-score was inactive: -0.605. As for GGUUCGACUGAAAACUUUCTT against Vamp2, the figure is inactive: 1.03; as for GCAAACCUUCGGUCUUGCCTT against Cd5l, inactive: -0.277. As for GCCUCGUGAAUAAUUGAAATT against Ddt, the figure is inactive: 0.404; as for GGGUAUGAGUGCAGACUAUTT against Zcchc9, inactive: -3.34; as for GCAUAUCACAUCCGAAUACTT against Per1, inactive: 0.644.

Turning to GGCUGUGGAUCUUCUCUGUTT against Magi1, the z-score is inactive: -1.91. In the case of CCCAGUUGACAGGAGACCATT against Hps6, the z-score is inactive: 0.169. The result for “GCAGUGUCAAAAAGAGCCATT against G930045G22Rik” reads inactive: -0.207; that for CGUAGAUGCUUCCAAGAUGTT against Ube2g2, inactive: 1.57. As for GGUUCACCACCUGCUACAATT against Pmf1, the figure is inactive: 0.186; as for CGUGGAAUGAAGAUUGUCCTT against Hsd17b12, inactive: 0.616; as for GGCUCAUGUAAGAUAAUUATT against Kcns3, inactive: -0.196. For the sequence “GGAUGUGGUGGUAUUAGACTT against 2900006B13Rik”, the z-score is inactive: 0.424. As for GGUGAAAUCUCUCUGGCCUTT against Panx3, the figure is inactive: -0.0251. In the case of “CGAGUGAAAGACCAUAUAATT against D330038O06”, the z-score was inactive: -2.25. As for GGUUGAAGCCAUAAAGAAATT against G22p1, the z-score is inactive: -0.478. The result for GGCUCCUAUAUACUGAUCATT against Olfr1402 reads inactive: 0.0142; that for GGAUUUGAACAUAAGUGACTT against AU040829, inactive: -0.351; that for GGAGAAAAGGUACGUUGUUTT against Rem1, inactive: -0.627. In the case of “GGAUGUGUGCAUCACGGGUTT against 1700018B08Rik”, the z-score was inactive: -1.39. GGAAAGUGUUUUCUCAUGATT against Bteb1: the z-score is inactive: 0.573. The result for GGUGUUUGGCUCACAAACCTT against Mmp23 reads inactive: -0.252; that for GGCAACACCAUACAGUAUATT against Adh7, inactive: -0.841; that for CCUGAUCAGAGUCUUAGUATT against Espl1, inactive: -3.03. As for GGAAUCACUGGUAUUAUCGTT against Surf1, the figure is inactive: 1.29; as for “GCACUAUGGGUGUCAUGGUTT against 2810468K17Rik”, inactive: -2.75; as for GCAUGACAUGCAAAACUACTT against Abhd3, inactive: 0.276. The result for GGUAUACGAACAUGUUUAUTT against Lin7c reads inactive: 0.0415. Regarding GCAGUUAUCAGUCGUCAAUTT against Zfp334, the z-score was inactive: -0.203. The result for GGAAAUUGGCACCAUUACUTT against Siat4a reads inactive: -1.48; that for “GGCGACAAGCAACUUAUAATT against 9130411I17Rik”, inactive: -0.967; that for GGUCACUGAACUGUUGCUGTT against Trpc7, inactive: 0.0527. As for CGUGUAAACGCAAUUAAAATT against BC066107, the figure is inactive: 0.132. As for GGUGUUAUUUUGAAGAAGATT against Arhgef10, the z-score is inactive: 0.399. With GGAGCUGAAAAUUGUUACCTT against Tpm2, the z-score was inactive: -0.489. In the case of GGAUGGAAUUACAAGGGUUTT against Kif1b, the z-score is inactive: -0.549. As for GGCUUAUCACAGGAAGAUCTT against Apg4c, the figure is inactive: 1.48; as for GGUCCUCUGGUUCAACAUUTT against Olfr638, inactive: -0.157; as for GCCUUUUUACAGCUCAGGUTT against LOC434179, inactive: -0.262. The result for GGUAUUCUUCCUCCAUGGGTT against Olfr638 reads inactive: 0.359. As for GGAUAAGCAGUUCUCAAGCTT against Mef2a, the figure is inactive: 1.1. Turning to GGAAGCAUCCAGUGCUAUUTT against Kremen2, the z-score is inactive: 0.563. As for “GGGUGUUUUUAAGUGUCCCTT against A630056B21Rik”, the figure is inactive: 1.39. As for “GGACAGACUGAUUUACAAATT against 5330421F07Rik”, the figure is inactive: 0.523. The result for GGCAACAGCACCAGAAGGATT against Ccl19 reads inactive: -1.04; that for CGAAGGGAUUGAUUUGACUTT against Kars, inactive: -2.06; that for GGUGAUAAGAUACAUAUCATT against Usp9x, inactive: -0.644.

Take GGUCCUCAAGAUCUUUGUGTT against Extl1: the z-score was inactive: -0.313. Regarding GGAGAAAAAUGAAAGAUCUTT against Grb14, the z-score is inactive: 1.54. As for GGCCUCGUCAUUUUACAGGTT against Mcee, the figure is inactive: -0.412; as for “GCAGUACUAAACCAGAUAUTT against 1200014J11Rik”, inactive: -0.835; as for GCUUAAAAUUCGGUAAGGATT against Il17r, inactive: -0.191. In the case of “GGGAUACCAUUAAUUAAAGTT against 3632451O06Rik”, the z-score is inactive: 0.122. In the case of GGAGUAGAAUGUAUUCAGATT against Ccng1, the z-score is inactive: -0.0906.

Consider “GGAUGAGGAAAAUGUGUCUTT against 2410012C07Rik”, for which the z-score is inactive: 0.563. The result for GGUCCCAGUCAUUAUCCACTT against Gdap1l reads inactive: 1.31; that for GGACUUGCUUUCUGAGAACTT against Zfp319, inactive: -1.09; that for GGCACAUCACUGCUUACCUTT against Rce1, inactive: -2.05. As for CCCUGUGUACAGAGAAAGGTT against Pabpnl1, the z-score was inactive: -2.07. In the case of GCCUUCCAUACAUUUAACATT against Olfr311, the z-score was inactive: -0.783. For GGCCAUGUUGAGUAAGAAATT against Mmrn2, the z-score was inactive: -1.62. As for GGCGAAUGCGCUUCUGAUATT against BC053393, the figure is inactive: 0.839; as for GCACUGACAUCAAAAAUACTT against Ddx31, inactive: 0.995. The result for GGCAAAUGUGUUAUGUUUUTT against Rnf11 reads inactive: 0.664; that for CCAUCCAGCUUUCAUUAAATT against Hem1, inactive: 0.217. As for GGUGCUGCAUGUGAAGAUGTT against Crebl1, the figure is inactive: -0.29; as for GGAACAAUUGGUUUGUUAATT against Ms4a6b, inactive: 1.37; as for GGAUGCAAGCAAAAUGCAGTT against Gpm6b, inactive: 1.09. GCAUCGUGCAGAAUUUUGCTT against Ephb1: the z-score was inactive: 1.39. For CCCUACUGUAUUAGAAAACTT against BC048355, the z-score was inactive: 0.676. The result for GCUAGGAGACCUCUUCAUGTT against Mkrn2 reads inactive: 1.1; that for GGGAUCAAAGCUUUUUUAGTT against Mad2l1, inactive: 0.283. The result for CGCUUAAAACAUUUGGUUATT against Rnf170 reads inactive: 0.447; that for CCUCUUUUUCUGUUACCGCTT against Oatl1, inactive: 1.03; that for “GGCUGUUGACAUUUUACAATT against B130016L12Rik”, inactive: -2.74. The result for GGAUUCCCUGUAUGCCCAATT against Rpl36al reads inactive: -0.128.

Consider GGAAGUCAUUGCUGUCGUCTT against Mov10l1, for which the z-score is inactive: -0.224. The result for GGAAGUUGACACCAAAACCTT against Magel2 reads inactive: 0.407; that for “GGAGUUUUCAUGCCUACAATT against 2310011G06Rik”, inactive: 0.243; that for GAGCUUGUUCACAUGUUUCTT against Tnfsf12, inactive: -0.0848. The result for GGCUCAGCACAAUGACUCUTT against Grem1 reads inactive: 1.03; that for CCCAGCUUAUACUCUUAAGTT against Fez1, inactive: 0.454. The result for “GGUCAUGGAUUGCUUUUUATT against 1110032N12Rik” reads inactive: -0.692; that for GCUCUUGGUGGAUCAUCAATT against Foxo3, inactive: -0.31. With GCCUUCCUCCGUUAAUCCATT against Ankrd25, the z-score was inactive: -0.169. On to GCAACUGAGUCGUAAGUUCTT against Tbc1d12, for which the z-score was inactive: -0.186. CGGUGUAAGUCUGGCUUUGTT against BC027828: the z-score was inactive: 0.155.
